Counter-ions that a name gives are not always drawn. ± gives the standard deviation of the averaged measurements. The list shows a part of the results. Single values of this set are uncertain.
System: Salmonella enterica serovar Typhimurium ST313 D23580
Assay: normalized bacterial growth (OD600 20 h minus 0 h, interquartile-mean normalized) (fraction of plate interquartile mean); higher = more bacterial growth (less inhibition)
Settings: LPM (pH 5.8, low phosphate, low Mg2+), concentration: 10 µM, temperature: 37 °C

SMILES	normalized bacterial growth
CCOc1ccc(C(=O)c2ccc(O)c(O)c2O)cc1	0.832
OC1CCN2Cc3ccccc3N=C12 (stereo unspecified)	0.948
CCCCC(=O)O[C@]1(C(=O)CO)CC[C@H]2[C@@H]3CCC4=CC(=O)CC[C@]4(C)[C@H]3[C@@H](O)C[C@@]21C	0.839
CCc1cccc2c3c([nH]c12)C(CC)(CC(=O)O)OCC3 (stereo unspecified) [Etodolac]	1.13
Cc1noc(NS(=O)(=O)c2ccc(N)cc2)c1C	0.651
CC1=C(CC(=O)O)c2cc(F)ccc2/C1=C\c1ccc([S+](C)[O-])cc1 (stereo unspecified) [Sulindac]	0.858
OCC(O)C(O)C(O)C(O)C(O)CO (stereo unspecified)	1.25
COc1cc(O)c(C)c(O)c1	0.88
NOCC(=O)O [O-(Carboxymethyl)hydroxylamine hemihydrochloride]	1.11
C[C@H](CCC(=O)O)[C@H]1CC[C@H]2[C@@H]3CC[C@@H]4CCCC[C@]4(C)[C@H]3CC[C@]12C	0.879
N=C(N)NC(=O)c1nc(Cl)c(N2CCCCCC2)nc1N	0.839
CCOC(=O)[C@H](CCc1ccccc1)N[C@@H](C)C(=O)N1CCC[C@H]1C(=O)O	1.13
CC(=O)N[C@@H](Cc1ccccc1)C(=O)O	1.14
Cn1nnnc1SCC1=C(C(=O)O)N2C(=O)[C@@H](NC(=O)[C@H](OC=O)c3ccccc3)[C@H]2SC1	0.906
Cc1cccc2c3c(ccc12)C1=C(C(=O)C3=O)C(C)CO1 (stereo unspecified)	0.526
O=C(O)c1cc(O)c(=O)c2c(O)c(O)ccc2c1	1.03
CC(=O)Nc1ccc(O)cc1 [Acetaminophen]	0.898
C=CCSCC(N)C(=O)O (stereo unspecified)	0.768
Nc1nc(SCc2ccc([N+](=O)[O-])cc2)c2ncn([C@@H]3O[C@H](CO)[C@H](O)C3O)c2n1 (stereo partly drawn) [S-(4-Nitrobenzyl)-6-thioguanosine]	0.908
COC(=O)[C@@H]1OC(=O)C2OC23[C@@]1(C)CCC1[C@]2(C)C(C[C@H](O)[C@]13C)C(C)(C)[C@H](OC(C)=O)C[C@@H]2OC(C)=O (stereo partly drawn) ["7beta-HYDROXY-7-DESACETOXYKHIVORINIC ACID, METHYL ESTER"]	0.858
COC(=O)C(C)c1ccc(C(=O)c2cccs2)cc1 (stereo unspecified)	0.858
COc1ccc2[nH]c([S+]([O-])Cc3ncc(C)c(OC)c3C)nc2c1 (stereo unspecified) [Omeprazole]	1

SMILES	normalized bacterial growth
COc1ccc2[nH]c([S+]([O-])Cc3ncc(C)c(OC)c3C)nc2c1 (stereo unspecified)	1.02
CCCCC(CC)CN=C(N)N=C(N)NCCCCCCNC(N)=NC(N)=NCC(CC)CCCC (stereo unspecified)	0.188
Cc1cc(-n2c(=O)[nH]c(=O)n(C)c2=O)ccc1Oc1ccc(SC(F)(F)F)cc1	0.865
CCCn1c(=O)c2[nH]c(-c3ccc(S(=O)(=O)O)cc3)nc2n(CCC)c1=O ["1,3-Dipropyl-8-p-sulfophenylxanthine"]	0.816
CC(C)CCC[C@@H](C)[C@H]1CC[C@H]2[C@@H]3C(=O)C=C4C[C@@H](O)CC[C@]4(C)[C@H]3CC[C@]12C	1.29
Cc1ccccc1N1C(=O)c2cc(S(N)(=O)=O)c(Cl)cc2NC1C (stereo unspecified) [Metolazone]	0.963 ± 0.059
CO[C@H]1[C@H](O)[C@@H](O)[C@H](O)[C@H](O)[C@H]1O	1
COc1ccc(-c2coc3c(OC)c(OC)cc(O)c3c2=O)cc1	0.884
O=C1N(c2ccccc2)c2ccccc2C1(Cc1ccncc1)Cc1ccncc1 [Linopirdine]	0.946
COc1ccc2c(c1)OCC(Cc1ccc(OC)c(OC(C)=O)c1)C2=O (stereo unspecified)	0.418
OCCOCCN1CCN(C(c2ccccc2)c2ccc(Cl)cc2)CC1 (stereo unspecified) [Hydroxyzine dihydrochloride]	0.967
OCCOCCN1CCN(C(c2ccccc2)c2ccc(Cl)cc2)CC1 (stereo unspecified)	0.864
CC(CCC(=O)O)[C@H]1CCC2C3CC[C@@H]4CC(=O)CC[C@]4(C)C3C=C[C@@]21C (stereo partly specified)	0.966
C=CC1=C(C(=O)O)N2C(=O)[C@@H](NC(=O)/C(=N\OCC(=O)O)c3csc(N)n3)[C@H]2SC1 [Cefixime]	0.0355
CC(=O)O[C@H]1C[C@@H](OC(C)=O)C(C)(C)C2C[C@@H](O)[C@]3(C)C(CC[C@@]4(C)[C@H](c5ccoc5)OC(=O)[C@H]5O[C@]543)[C@]21C (stereo partly specified)	0.744
C[C@H]1C[C@@H]2[C@H]([C@@H](O)C[C@@]3(C)[C@H]2CC[C@]3(O)C(=O)COC(=O)CCC(=O)O)[C@@]2(C)C=CC(=O)C=C12	1.08
Nc1cc(-c2ccncc2)c[nH]c1=O	0.863
c1ccc2c(c1)CCCc1cc(NCCN3CCOCC3)nnc1-2	0.918
CC(N)C12CC3CC(CC(C3)C1)C2 (stereo unspecified)	0.911
COC(=O)C(N)CS (stereo unspecified)	1.05
CN(C)CC[C@@H](c1ccc(Cl)cc1)c1ccccn1	0.946
CN(CCOc1ccc(CC2SC(=O)NC2=O)cc1)c1ccccn1 (stereo unspecified)	0.913

SMILES	normalized bacterial growth
CCC(=O)OCC(=O)[C@@]1(OC(=O)CC)[C@H](C)C[C@H]2[C@H]3[C@H]([C@@H](O)C[C@@]21C)[C@@]1(C)C=CC(=O)C=C1C[C@H]3Cl [Alclometasone dipropionate]	0.699
O=C(CC(=O)c1ccccc1)c1ccccc1	0.938
O=C(OCc1ccccc1)c1ccccc1	0.915
N#C/C(=C\c1ccc(O)c(O)c1)C(=O)NCCCNC(=O)/C(C#N)=C/c1ccc(O)c(O)c1 [Tyrphostin AG 537]	1.2
N=C(N)N/N=C/c1c(Cl)cccc1Cl [Guanabenz acetate]	0.892
N=C(N)N/N=C/c1c(Cl)cccc1Cl	0.8
OC(CCN1CCCCC1)(c1ccccc1)C1CCCCC1 (stereo unspecified) [Trihexyphenidyl hydrochloride]	1.1
Cc1cc(O)c(C=O)c2c1C(=O)Oc1c(COC(=O)/C=C/C(=O)O)c(O)c(C(=O)O)c(C)c1O2	0.871
CN(C)CCOC(=O)COc1ccc(Cl)cc1 [Centrophenoxine hydrochloride]	1.31
Brc1c(NC2=NCCN2)ccc2nccnc12	0.553
COc1ccc(-c2cc(C(F)F)nn2-c2ccc(S(N)(=O)=O)cc2)cc1F	0.906
CC(Oc1ccccc1)C(=O)N[C@@H]1C(=O)N2[C@@H]1SC(C)(C)[C@@H]2C(=O)O (stereo partly specified)	1.12
CC(C)NC[C@H](O)c1ccc(O)c(O)c1 [R(-)-Isoproterenol (+)-bitartrate]	0.777
COc1cc(C(=O)O[C@H]2C/C(C)=C/CC/C(C)=C/[C@H](O)[C@@H]2C(C)C)ccc1O	0.905
C[C@@H]1CC[C@@]2(OC1)O[C@H]1C[C@H]3[C@@H]4CC[C@@H]5C[C@@H](O)CC[C@]5(C)[C@H]4CC[C@]3(C)[C@H]1[C@@H]2C	0.901
NCCS(=O)O [Hypotaurine]	1.25
N[C@@H](C(=O)N[C@@H]1C(=O)N2C(C(=O)O)=C(Cl)CS[C@H]12)c1ccccc1 [Cefaclor]	1.35 ± 0.088
N[C@@H](C(=O)N[C@@H]1C(=O)N2C(C(=O)O)=C(Cl)CS[C@H]12)c1ccccc1	1.03
CN1CCC[C@@H]1c1cccnc1.Cc1ccc(C(=O)O[C@H](C(=O)O)[C@@H](OC(=O)c2ccc(C)cc2)C(=O)O)cc1 [(+)-Nicotine (+)-di-p-toluoyl tartrate]	1.13
Cn1c([N+](=O)[O-])cnc1COC(N)=O	1.07
NC(N)=O	1.11
CN(C)[C@@H]1C(O)=C(C(N)=O)C(=O)[C@@]2(O)C(O)=C3C(=O)c4c(O)ccc(Cl)c4[C@@H](O)[C@H]3C[C@@H]12 [Demeclocycline hydrochloride]	0.00794

Laid out differently: results already given.

| SMILES | normalized bacterial growth |
| --- | --- |
| O=C(CC(=O)c1ccccc1)c1ccccc1 | 0.938 |
| O=C(OCc1ccccc1)c1ccccc1 | 0.915 |
| N#C/C(=C\c1ccc(O)c(O)c1)C(=O)NCCCNC(=O)/C(C#N)=C/c1ccc(O)c(O)c1 [Tyrphostin AG 537] | 1.2 |
| N=C(N)N/N=C/c1c(Cl)cccc1Cl [Guanabenz acetate] | 0.892 |
| N=C(N)N/N=C/c1c(Cl)cccc1Cl | 0.8 |

(cont.)

SMILES	normalized bacterial growth
O=C(O)/C(=C\c1c(C(=O)O)[nH]c2cc(Cl)cc(Cl)c12)c1ccccc1	0.734
Clc1ccc(COC(Cn2ccnc2)c2ccc(Cl)cc2Cl)c(Cl)c1 (stereo unspecified)	0.975
Clc1ccc(COC(Cn2ccnc2)c2ccc(Cl)cc2Cl)c(Cl)c1 (stereo unspecified) [Miconazole]	0.858
NCC=CC(=O)O (stereo in doubt) [cis-4-Aminocrotonic acid]	0.929
Cc1cc(=O)n(-c2ccccc2)n1C	0.986
CC(=O)[C@H]1CC[C@H]2[C@@H]3CC=C4C[C@@H](OS(=O)(=O)O)CC[C@]4(C)[C@H]3CC[C@]12C [Pregnenolone sulfate sodium]	0.946
NC12CC3CC(CC(C3)C1)C2 [Adamantamine fumarate]	0.938
NC12CC3CC(CC(C3)C1)C2 [Amantadine hydrochloride]	0.89
N#C/C(=C\c1ccc(O)c(O)c1)C(=O)c1ccc(O)c(O)c1 [Tyrphostin AG 538]	0.863
O=c1c2ccccc2oc2ccccc12	0.505
O=C(O)c1cc(O)c2c(c1)[C@@H]([C@H]1c3cc(C(=O)O)cc(O)c3C(=O)c3c(O[C@@H]4O[C@H](CO)[C@@H](O)[C@H](O)[C@H]4O)cccc31)c1cccc(O[C@@H]3O[C@H](CO)[C@@H](O)[C@H](O)[C@H]3O)c1C2=O	1.08
CC1(C2CCCC2)Cc2cc(OCC(=O)O)c(Cl)c(Cl)c2C1=O (stereo unspecified)	1.04
N=C1C=CC(=C(c2ccc(N)cc2)c2ccc(N)cc2)C=C1	0.866
C=C1C2CC[C@@]3(C)[C@H](c4ccoc4)OC(=O)C[C@]13O[C@H]1CC(O)C(C)(C)C(CC(=O)OC)[C@@]21C (stereo partly drawn) [3alpha-HYDROXY-3-DEOXYANGOLENSIC ACID METHYL ESTER]	1.33
Brc1ccc([C@H]2CN3CCSC3=N2)cc1 [S(-)-p-Bromotetramisole oxalate]	0.411
C=CC[C@H](N)C(=O)O [L-allylglycine]	1.16
C[C@@H]1NC(=O)NC1=O [Methylhydantoin-5-(L)]	0.985
O=C(O)c1ccccc1Nc1ccccc1 [N-Phenylanthranilic acid]	1.17
COc1c(O)cc2c(-c3ccccc3)cc(=O)oc2c1OC	0.905
CC(=O)O[C@H]1CC[C@]2(C)C3=C(CC[C@H]2C1(C)C)[C@]1(C)CC[C@H]([C@H](C)CCC=C(C)C)[C@@]1(C)CC3	1.01

From the supplement of paper PMC10398353
